Some entries share one result that the patent states for a list of compounds.
Tested on: Ts65Dn mice
Assay: Exploratory paradigm: ability to recognize a novel object in a novel location (discrimination ratio), Ts65Dn Down syndrome mice
Assay type: in vivo, mouse
Conditions: 3.0 mg/kg (compound 1) or 10 mg/kg i.p.
Protocol: […] Animals were kept on a 12 hour light/dark cycle and experimentation was conducted during the light portion of the cycle. Animals had unlimited access to food and water. All animals used were housed individually to limit the interference of social interaction on cognitive test performance. Animal care and experimental testing procedures conformed to NIH, IACUC, and AALAC standards and protocols.
Ts65Dn are compared to their control littermates for the effects of excipients and compounds in altering the performance and rescue of deficits in the Ts65Dn DS mouse model.
The apparatus for these experiments consisted of a 40 cm×40 cm Plexiglas box with clear walls and a dark grey floor. The box was placed on a circular white table 1 m in diameter. Four distinct, approximately 20 cm×20 cm black and white shapes were placed 30 cm away from the midpoint of each side of the box. Objects were made from various washable, non-porous materials (plastic, metal, glass, etc.), 2-7 cm in height and varied in color, pattern and texture. To prevent odor cues, all apparatus and objects were disinfected and deodorized with HDQ after each use.
The experimental paradigms utilized the inherent tendency of rodents to differentially explore novel stimuli over familiar stimuli. Exploration was defined as any investigative behavior where mice have active and direct contact with an object. Such behaviors included head orientation and sniffing within <1.0 cm of the object, pawing, biting, or crawling over the objects. Exploration was recorded with an overhead video camera and the duration of exploration was measured with a stopwatch. The week prior to testing, all animals were handled in daily sessions and given an opportunity to habituate to the clear or red apparatus. Each experimental session presented the animal with new object sets and tests were separated by a minimum 48 hour interval. It should be noted that order effects are not normally observed in exploration tasks. Each test consisted of a Habituation Phase, during which mice display reduced exploration over time as a function of habituation, and a Test Phase on novelty detection that is interpreted to reflect recognition memory.
For each of the 7 compounds 1-7, the compound was administered to Ts65Dn mice via i.p. injection at a concentration of 3.0 mg/kg (compound 1) or 10 mg/kg (compounds 2, 3, 4, 5, 6, and 7) body weight delivered in a vehicle of methyl cellulose+0.2% tween 80 solution, while additional Ts65Dn mice were administered with vehicle alone. Each animal received a volume (ml) of drug in vehicle equal to 1% of its body weight (g) or an equal volume of vehicle alone. […]
The duration of exploration of the Novel and Familiar stimuli during the Test Phase was individually measured with stopwatches, rounding to the 0.5 second. […]

Row | SMILES | rescue of cognition of Ts65Dn mice (summary) | rescue of cognition of Ts65Dn mice (summary) (listed as Compound 3) | rescue of cognition of Ts65Dn mice (summary) (listed as Compound 4)
1 | O=S(=O)(c1cccc2ccccc12)n1ccc2ccc(N3CCN4CCCC4C3)cc21 (stereo not shown) [compound 3, 2-(1-(naphthalen-1-ylsulfonyl)-1H-indol-6-yl)octahydropyrrolo[1,2-a]pyrazine] | positive responses | restore the cognition of Ts65Dn mice to nearly that of non-Ts65Dn (control) mice | –
2 | CN1CCC(c2cn(C)c3ccc(OS(=O)(=O)c4c(F)cccc4F)cc23)CC1 [compound 4, 1-methyl-3-(1-methylpiperidin-4-yl)-1H-indol-5-yl 2,6-difluorobenzenesulfonate] | positive responses | – | restore the cognition of Ts65Dn mice to nearly that of non-Ts65Dn (control) mice

From US10478436B2, “Application of 5-HT6 receptor antagonists for the alleviation of cognitive deficits of down syndrome” (The University of Utah Research Foundation, priority 2011, dated 2019)
